From PubChem BioAssay AID1347423 (Functional Genomics Laboratory (NCATS/FGL), 2020) come the findings set out here.

The whole screen tested about 52,000 sequences, of which about 210 (0.4%) were called active.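 Rule for the calls: active = gene whose silencing raises cell survival under the drug, median off-target-corrected z-score across its silencing RNAs 2 or more; inactive = the rest.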 This is one part of the list.

A short description of the assay: Resistance to Poly (ADP-Ribose) Polymerase inhibitor: Gene Identification via Genome-wide siRNA Screen. The settings on record: mouse BRCA2 R2336H ES cells, olaparib, CellTiter-Glo viability; active compounds read high. From the text: The role of Poly (ADP-Ribose) Polymerase (PARP) proteins in DNA repair has been elegantly utilized for the synthetic lethality-based treatment of BRCA-deficient tumors by PARP inhibitors. PARP inhibitors are now being used for treatment of BRCA-deficient breast and ovarian cancers. […] While several mechanisms of drug resistance have been identified, majority of these tumors develop drug resistance due to unknown causes. To identified novel regulators of chemo-resistance in BRCA2-mutated cells, we performed a genome wide siRNA library screen. We have found ES cells expressing a hypomorphic allele of BRCA2 to be hypersensitive to PAPP inhibitors (such as olaparib). We used ES cells expressing a mutant allele of BRCA2 that has a single amino acid substitution at position 2336 (arginine to histidine, R2336H). The screen was conducted using an Ambion (Thermo) Silencer Mouse Genome siRNA collection. The library targets 17,575 mouse genes with 3 siRNAs per gene. TET2 (E130014J05Rik) was identified as a top candidate.
Transfections were performed in 384 well plates (Corning 3707). Plates were coated with 0.1% gelatin in H2O overnight at ambient temperature. Gelatin solution was aspirated (BioTek EL406) and siRNAs were printed using a Bravo VPrep liquid handler integrated within a BioCel automation platform (Agilent). Cell viability was measured using CellTiter Glo (Promega). For transfections, […] of serum free media containing Lipofectamine RNAiMax […] was added to wells containing siRNA (0.8pmol). Lipid and siRNA were allowed to complex for 45 min at ambient temperature before addition of 1000 cells in DMEM, 30% FBS to yield final transfection mixtures containing 20 nM siRNA in DMEM, 15% FBS. PARPi (olaparib, AZD2281) was added 48 h post-transfection (500 nM) and viability (CellTiter Glo, Promega) was assayed 72 h later on a PerkinElmer Envision 2104 Multilabel plate reader. Ambion Silencer Select Negative Control #2 was incorporated on all screening plates (16 wells) and the median negative control value on each plate was used for normalization. An siRNA targeting Trp53 was used as a positive control. This control yielded a median protective effect of ~1.9 fold versus negative control throughout the screen. The median absolute deviation (MAD) based z-score was calculated for each siRNA. Genes were then ranked by taking the median value for all siRNAs tested against a given gene. Scores were also adjusted for seed-based off-target effects to help deprioritize likely false positives.
On to “GGAAGAAGUCCAACAGCACTT against C330039G02Rik”, for which the z-score is inactive: 0.261. The result for CCGUGGUGCAAGCUUACAUTT against Atp2b4 reads inactive: 0.291. Take CGUCCUUUAUUAGAGAUGATT against Got1: the z-score is inactive: -0.637. To GGUUGGUUUGAAGAUCAAGTT against Pole2 belongs inactive: -1.69; to GCCCUGGAAAGGAUGUUUGTT against Hba-a1, inactive: -0.962. The result for GGAACAUAGUAGCAUGCCATT against Leprel2 reads inactive: -0.442; that for GGUCUUUACCAUACACAGCTT against Zfp352, inactive: -0.534; that for GGUUGUGGAAGAAGGACUCTT against Thrap2, inactive: 0.488. The result for GCCUUGAGAUGACGACAACTT against Thy28 reads inactive: -0.946. On to GCUAUUUCUAGGCAGACUGTT against Ypel5, for which the z-score is inactive: -1.11. The result for CGAUGGAGCUUUCAAAACUTT against Treml4 reads inactive: 0.237; that for GGACCAGACUUUGAAGAAUTT against Homer3, inactive: -1.47; that for GGGAGUUAACUUCAAGGAATT against Gpr120, inactive: 0.65.

Turning to GGACCUGAGAUAUUUUCUGTT against Mfap5, the z-score was inactive: -0.196. To “GGACAGUGAUGAAGAAAAUTT against 3110031B13Rik” belongs inactive: 0.593; to “GGGCCUCUCUCAGUGACAUTT against 9130217G22Rik”, inactive: -0.726; to GCAAGCCAUGAGACACCUUTT against Olfr843, inactive: -0.073. Consider “GGAGAACAAAGAUUUCGUGTT against B230384L07”, for which the z-score is inactive: -0.0293. As for GGUGUGUGGUGGUUGGUAATT against Siat10, the z-score was inactive: -0.452. The result for GGCUUAUUAUCAGGAAAUGTT against Plcz1 reads inactive: -0.672; that for CGGUUUCACGAAUUCCUCCTT against Zfp291, inactive: 0.177; that for GGUGCUGUGAUAGAUCAGUTT against Zdhhc13, inactive: 0.296.

For GCCAGACUAAACAAUACCCTT against Cldn19, the z-score was inactive: 0.356. The result for GGGUGAUGAUGCAUAUAAGTT against Asb5 reads inactive: 0.551.

With GGCGUGGAUUCUCAGAUAGTT against Pnn, the z-score is inactive: 1.24. The result for CGAGGAACUUCUGUGGAAATT against Mtus1 reads inactive: 0.857; that for GGGUACUCACAGGAAAGUGTT against Olfr411, inactive: -0.525; that for CCUCUCACUAAAGACUUCCTT against Dlgap2, inactive: -0.0891. To GCUUACCAAGUGAACACACTT against Mrpl12 belongs inactive: -0.647; to GAGCUACGAGGUACAGUUATT against Ifi202b, inactive: -0.885; to GGCAAGGCUACUACUUGCATT against Fgf14, inactive: 0.699. Consider GGAGGUCGUAUUGCGCUAUTT against Lnk, for which the z-score was inactive: 0.611. For GGUGUUCUGUGGUCAUGAGTT against Haghl, the z-score is inactive: 0.132. To GGUCUUUCCAUUCAUACUUTT against Sec24a belongs inactive: -0.0241.

On to CCUCUACUACAACUGAUUATT against Lamp3, for which the z-score is inactive: 0.232.

Take CCCUCCAAUAUGGUUCACCTT against Optn: the z-score was inactive: -0.175. To GCUGAGGCAUAAAAACGAGTT against Atad3a belongs inactive: 0.0453. The result for AGCAUCAUUACUGGAUUCCTT against Olfr859 reads inactive: 0.116. The result for CCAGCAUGCACUCAGAUUATT against Trib1 reads inactive: 0.24; that for GGUGUUAGAAAAGUUGAUUTT against Figf, inactive: -0.267; that for GGGCAGAUGUAAUUCUUGUTT against Ctsm, inactive: -0.884. As for CCUUCGUAAAACAGAUUGATT against Ikbkap, the z-score was inactive: 0.6. To GGAAAAGCUUUGUAUUACUTT against Gpr124 belongs inactive: -0.926; to “GGAUUUAGUUGAAGCCUUCTT against 9030421J09Rik”, inactive: -0.343.

For GGCUUUCUCCUACAUAUGCTT against Numbl, the z-score was inactive: -0.005. For the sequence “GCAGAUGCUAUUUAUGCAGTT against 2610031L17Rik”, the z-score was inactive: -1.34. The result for GGAAAUAAUGUUACUGACATT against AW610627 reads inactive: -1.42; that for GGGUCAAAGAGAAAAAAGUTT against Hoxa13, inactive: -0.913. With “GGCUUUACAGAAAUAUCCUTT against 4933417E01Rik”, the z-score is inactive: -0.238. The result for GGAUCUUAGUAAUAUUGGUTT against Ash2l reads inactive: -1.75. On to CCAGGUCUUAGUAAACAUUTT against Cbln2, for which the z-score is inactive: -0.0235. Regarding “GGCUGUAAAUAUCUGCCAUTT against 2310005N01Rik”, the z-score was inactive: 0.636. To GGACAUUUUCAAACAAGGCTT against Mthfs belongs inactive: 0.0323. To “GGCCUAUGGCUUCAUUAGCTT against 0610012C01Rik” belongs inactive: 0.904.

On to CGAGAAGGGUCAUAUGAGCTT against Rbp4, for which the z-score is inactive: 1.54. The result for GGGUUUAUGUAAGUUUCCUTT against Th1l reads inactive: -0.894. To GGAGACUCCUAAGAAGCAGTT against BC016188 belongs inactive: -0.906. The result for “GGUUCUUCAGGCCACUGAUTT against 1110034A24Rik” reads inactive: 0.416; that for GGUGUUACAUAUGAGGAAUTT against Asrij, inactive: 0.258; that for GACCUGAAGAAGUCAGAUGTT against Sycn, inactive: -0.416. Regarding GGGACUGGAAACACACACGTT against Etos1, the z-score is inactive: 0.355.

In the case of GCACACUACGGUCCAUCUCTT against AY534250, the z-score was inactive: 0.268. As for GGUGCUGGAGAAGAACAUGTT against Map2k3, the z-score was inactive: -1.52.

As to GCUAACCGAGUUAGUGAGUTT against Lrsam1, the z-score was inactive: -0.889. The result for GGGAAUGUGGAAGAGUUCCTT against Apg4c reads inactive: 0.15; that for “GCCCUAUCUGCUGAUACCUTT against D430028G21Rik”, inactive: -0.191.
